# Experimental data: PubChem BioAssay AID652259 (Drosophila RNAi Screening Center, 2013)
# Assay: 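Genome-wide hunt for genes that control Wingless pathway activity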 (primary screen)
# Cells: Drosophila clone 8 imaginal disc epithelial cells
# Knock-down reagent: long dsRNA against Drosophila genes
# Conditions: pathway stimulated by co-transfected Wingless expression plasmid
# Measurement: 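Dual luciferase reads per well after Wingless plasmid stimulation: reporter firefly light and Renilla control light; activity is firefly divided by Renilla, a ratio not deposited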
# Scale: firefly reporter light: higher = more Wg reporter light, before normalisation; Renilla control light: higher = more transfected or surviving cells
# Hit rule: 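a knock-down is a candidate when at least two out of four statistical tests show it departing from its plate mean; one test alone signals a weak candidate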
# Calls: active = candidate regulator (raises or lowers reporter); inactive = not a candidate
# The deposit covers about 22,000 reagents; this is an unselected part of those with a known target gene and a result. In the full data, 233 (1.1%) got an active call. 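Light values are raw, unnormalised plate reads; the ratio scores behind the reporter calls were not deposited.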 Unmarked entries are inactive. The numbers tell different reagents against one gene apart. Names joined by + are all predicted targets of the reagent. Not stated in the record: the amount of reagent, the time to read-out, the dose of the treatment.
gene,reagent,"reporter change call, replicate 1","firefly reporter light, replicate 1","firefly reporter light, replicate 2","Renilla control light, replicate 1","Renilla control light, replicate 2"
"Pka-C3 (Protein kinase, cAMP-dependent, catalytic subunit 3)",1,,4177,,1504,
"Pka-C3 (Protein kinase, cAMP-dependent, catalytic subunit 3)",2,,4857,,3316,
Cse1 (Chromosome segregation 1),1,,4548,6.76e5,1269,3.49e5
Cpr65Av (Cuticular protein 65Av),1,,1651,8371,1753,5008
eIF3k (eukaryotic translation initiation factor 3 subunit k),1,,11768,,2341,
CG3638,1,,17574,,8764,
CG15765,1,,2005,5415,375,674
CG31705,1,,3296,,2049,
CAH9 (Carbonic anhydrase 9),1,,7285,,4050,
dgt1 (dim gamma-tubulin 1),1,,3348,5994,539,929
HmgD (High mobility group protein D),1,,12556,,4161,
CG31898,1,,14948,,7690,
Vtld + CG42529,1,,15990,,5140,

Reformatted: entries from further up
gene | reagent | reporter change call, replicate 1 | firefly reporter light, replicate 1 | firefly reporter light, replicate 2 | Renilla control light, replicate 1 | Renilla control light, replicate 2
Cse1 (Chromosome segregation 1) | 1 | – | 4548 | 6.76e5 | 1269 | 3.49e5
Cpr65Av (Cuticular protein 65Av) | 1 | – | 1651 | 8371 | 1753 | 5008
eIF3k (eukaryotic translation initiation factor 3 subunit k) | 1 | – | 11768 | – | 2341 | –
CG3638 | 1 | – | 17574 | – | 8764 | –

Further entries follow:
gene,reagent,"reporter change call, replicate 1","firefly reporter light, replicate 1","firefly reporter light, replicate 2","Renilla control light, replicate 1","Renilla control light, replicate 2"
CR18228 (pseudo),1,,20557,,4550,
CG13800 (retired record),1,,6720,,2621,
CG8888,1,,12928,,4230,
CG8888,2,Wg reporter activity lowered (active),5813,,4464,
lncRNA:CR43632 (long non-coding RNA:CR43632),1,,4496,,1696,
TP53INP (Tumor protein p53 inducible nuclear protein),1,,8306,,2887,
TP53INP (Tumor protein p53 inducible nuclear protein),2,,8.50e5,8.31e5,3.38e5,1.02e5
Mtr3,1,,15638,,4589,
Obp19c (Odorant-binding protein 19c),1,,12416,,9527,
Sp7 (Serine protease 7),1,,17552,,4192,
Sh3beta,1,,5201,,2829,
Sh3beta,2,,4.84e5,4.86e5,1.87e5,1.89e5
CR10032 (pseudo),1,,12823,,4029,
Gprk2 (G protein-coupled receptor kinase 2),1,,1159,3177,666,1072
hoe1 (hoepel1),1,,7177,,3517,
hoe1 (hoepel1),2,,3397,6876,1088,1130
hoe1 (hoepel1),3,,3860,8544,954,992
